PubChem BioAssay AID1347076 (National Center for Advancing Translational Sciences (NCATS), 2019)
Hit rate of the full screen: of about 400,000 compounds, about 13,000 (3.2%) were called active. This list was built around the results that the source calls inconclusive (neither active nor inactive); the mix of calls is not that of the screen. Calls follow the shape of the dose curve; as a rule, active = well fitted cell-killing curve with a large enough effect; inconclusive = small, poorly fitted or top-dose-only effect, or effect the other way; inactive = flat fitted curve, though single readings scatter. Where the call is inconclusive, the potency comes from a doubtful curve fit.

Assay: qHTS assay for MDR1-selective chemotherapeutics: Primary screen using the drug-selected MDR subline cells KB-V1; also: nearly all actives have a fitted effect of over 60% in size
Details: KB-V1 MDR cells viability, CellTiter-Glo, 72 h; activity change, negative = cytotoxicity: at 46.1 µM (top of the series)
Method in brief: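 In this primary screen, KB-V1 cells overexpressing P-gp are incubated with library compounds (lowest to highest concentration) for 72 h at 37 degrees C before a luminescent ATP viability read.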
% is scaled to controls: 0 for no effect and ±100 for the full control effect; potency is read from the fitted curve at half-maximal effect.

SMILES	Potency	activity change, negative = cytotoxicity
Cc1nn(C)cc1CN(C)S(=O)(=O)c1cccc([N+](=O)[O-])c1	inconclusive: 29.1 µM [cytotoxic, single point]	
CCOC(=O)CC1(NC(=O)c2cc(COc3ccc(F)c(F)c3)on2)CCCCC1		inactive: -7.75%
COc1cc(Nc2ccccc2Cl)c([N+](=O)[O-])nc1[N+](=O)[O-]		inactive: 0.0933%
O=c1[nH]c2ccccc2nc1/C=C/c1ccccc1		inactive: 7.03%
O=C(COCC(=O)N/N=C/c1ccc(F)cc1)N/N=C/c1ccc(F)cc1		inconclusive: 31.7%
CC(C)(C)n1ncc2c(=O)n(CC(=O)Nc3ccccc3)cnc21		inactive: 0.319%
CCOC(=O)C(=NCC1CCCO1)NNc1ccccc1Cl (stereo unspecified)		inactive: -0.86%
O=C(NC(=S)NC1CCCCCC1)c1cncc(Br)c1	inconclusive: 16.4 µM [cytotoxic, single point]	
COCCN(C(=O)COC(=O)c1ccc(Cl)s1)c1c(N)n(Cc2ccccc2)c(=O)[nH]c1=O		inconclusive: 14%
O=C(NC12CC3CC(CC(C3)C1)C2)N1CCC(O)(c2ccc3c(c2)OCO3)CC1		inactive: -19.5%
CC(C)CNS(=O)(=O)c1ccc(OCC(=O)NCC2CCCO2)c(Cl)c1 (stereo unspecified)	inconclusive: 23.1 µM [cytotoxic, partial curve]	
Cc1ccc(N(Cc2cc3ccccc3[nH]c2=O)S(=O)(=O)c2ccccc2)cc1		inactive: 1.74%
COc1ccc(N2C(=O)CC(S/C(N)=N/N=C(\C)c3cccs3)C2=O)cc1 (stereo unspecified)	inconclusive: 29.1 µM [cytotoxic, single point]	
COc1cc(N=C2C(=O)N3c4c(cccc42)C(C)=CC3(C)C)cc(OC)c1	inconclusive: 16.4 µM [cytotoxic, single point]	
O=C(NCc1ccccc1)C(c1ccc(C(F)(F)F)cc1)n1c(=O)c(-c2ccccc2)nc2ccccc21 (stereo unspecified)	inconclusive: 3.66 µM [cytotoxic, full curve]	
COc1ccc(N2CCN(C(=O)CN(C3CCCCC3)S(C)(=O)=O)CC2)cc1	inconclusive: 16.4 µM [cytotoxic, single point]	
COc1cccc(C2=CC(c3cc(Br)ccc3F)n3nnnc3N2)c1 (stereo unspecified)		inactive: -27.3%
CCN(c1ccccc1)S(=O)(=O)c1ccc(Cl)c(NC(=O)Nc2ccc(Cl)cc2C#N)c1	inconclusive: 29.1 µM [cytotoxic, single point]	
N#Cc1ccccc1NC(=O)c1ccccc1OCC(=O)NCc1ccco1	inconclusive: 29.1 µM [cytotoxic, single point]	
CC(=O)Nc1ccc(C(=O)OCC(=O)Nc2c(C)n(C)n(-c3ccccc3)c2=O)cc1		inactive: -9.73%
COc1cc2c(cc1OC)[C@H](C)N(C(=O)NCc1ccccc1)CC2	inconclusive: 29.1 µM [cytotoxic, single point]	
Brc1ccc(-c2csc(N/N=C/c3ccco3)n2)cc1		inactive: -1.11%

SMILES	Potency	activity change, negative = cytotoxicity
CCCCNC(=O)C[C@@H]1C[C@@]2(C(=O)OC)CCCCC=C2N(Cc2cccc3ccccc23)C1=O	inconclusive: 29.1 µM [cytotoxic, single point]	
Cc1cc2c(cc1C)N(Cc1ccccc1)C1=NCCCN12	inconclusive: 20.6 µM [cytotoxic, partial curve, poor fit]	
CCC(C)n1c(NC(=O)c2ccccc2)c(C#N)c2nc3ccccc3nc21 (stereo unspecified)	inconclusive: 29.1 µM [cytotoxic, single point]	
Cc1ccc(NC(=O)Nc2sc3nc4n(c(=O)c3c2C)CCC(C)CC4)c(Cl)c1 (stereo unspecified)	inconclusive: 29.1 µM [cytotoxic, single point]	
Cn1cc(C2=C(c3cn(CCCSC(=N)N)c4ccccc34)C(=O)NC2=O)c2ccccc21	inconclusive: 29.1 µM [cytotoxic, single point]	
CC1CC(C)CN(CCOc2ccc(Br)cc2)C1 (stereo unspecified)	inconclusive: 8.2 µM [cytotoxic, partial curve, poor fit]	
CCOc1ccc(CCNC(=O)C2CCCN(S(=O)(=O)N3CC(C)CC(C)C3)C2)cc1OCC (stereo unspecified)		inconclusive: -3.6%
Cc1ccc(NC(=O)CC2NCCNC2=O)cc1 (stereo unspecified)	inconclusive: 0.92 µM [rising, partial curve, poor fit]	
CCOCC(=O)Nc1ccc([N+](=O)[O-])cc1OC	inconclusive: 14.6 µM [cytotoxic, single point]	
Cc1cc(NC(=O)CCC(=O)N(CCc2ccccc2)C(C(=O)NC2CCCC2)c2ccco2)no1 (stereo unspecified)	inconclusive: 25.9 µM [cytotoxic, single point]	
CCN(CC(=O)NCc1cccs1)C(=O)c1ccc(N(C)S(=O)(=O)c2ccc(C)cc2)cc1		inactive: -6.79%
COc1cc(C2CC(c3cccnc3)=NN2c2ccc(F)cc2)cc(OC)c1OC (stereo unspecified)		inactive: 1.87%
Cc1cccc(C)c1NC(=O)C(CCc1ccccc1)N1CCC(c2ccccc2)CC1 (stereo unspecified)	inconclusive: 5.8 µM [cytotoxic, partial curve]	
Cc1nc(N2CCC3(CC2)OCCO3)c2nnn(Cc3ccccc3F)c2n1	inconclusive: 6.51 µM [cytotoxic, full curve, poor fit]	
COC(=O)c1ccc(NC(=O)N2CCN(Cc3cc(=O)n4nc(-c5ccc(C)cc5)sc4n3)CC2)cc1		inactive: 2.88%
Cc1c(C(=O)NCc2cccc([N+](=O)[O-])c2)sc(=O)n1Cc1cccc(F)c1	inconclusive: 5.8 µM [cytotoxic, partial curve]	
COc1cc(OC)c2c(-c3ccccc3)cc(=O)oc2c1C(CCN1CCCC(C)C1)c1ccc2c(c1)OCO2 (stereo unspecified)	inconclusive: 6.51 µM [cytotoxic, partial curve, poor fit]	
O=C(NCc1ccccc1Br)c1ccc2c(c1)OCCO2	inconclusive: 29.1 µM [cytotoxic, single point]	
Cc1cc(C)c(NC(=O)CC(=O)c2ccccc2)c(Cl)c1	inconclusive: 11.6 µM [rising, partial curve, poor fit]	
Cc1ccc(C)c(C(=O)c2c(C)nc3sccn23)c1	inconclusive: 20.6 µM [cytotoxic, single point]	
CCOc1ccc(N2CC(C(=O)Nc3ncccc3C)CC2=O)cc1 (stereo unspecified)	inconclusive: 29.1 µM [cytotoxic, single point]	
OCCOCCn1c(C2CCCN2c2nc(-c3ccc(F)cc3)cs2)nc2cc(Cl)c(Cl)cc21 (stereo unspecified)	inconclusive: 32.6 µM [cytotoxic, partial curve, poor fit]	

Complete entries from above:
`O=C(NCc1ccccc1Br)c1ccc2c(c1)OCCO2` in the list: Potency: inconclusive: 29.1 µM [cytotoxic, single point]
`Cc1ccc(C)c(C(=O)c2c(C)nc3sccn23)c1` in the list: Potency: inconclusive: 20.6 µM [cytotoxic, single point]
`CC1CC(C)CN(CCOc2ccc(Br)cc2)C1` (stereo unspecified) in the list: Potency: inconclusive: 8.2 µM [cytotoxic, partial curve, poor fit]
`Cc1cc2c(cc1C)N(Cc1ccccc1)C1=NCCCN12` in the list: Potency: inconclusive: 20.6 µM [cytotoxic, partial curve, poor fit]

Additional structures follow:

SMILES	Potency	activity change, negative = cytotoxicity
COc1ccc(CNc2cccc(F)c2)cc1Br	inconclusive: 18.4 µM [cytotoxic, single point]	
Cc1ccc(Cl)cc1N1CCN(Cc2cc(=O)n3ccsc3n2)CC1	inconclusive: 25.9 µM [cytotoxic, partial curve, poor fit]	
CCN1CCN(c2cc(C)c3cc(NC(=O)c4ccc5c(c4)OCO5)ccc3n2)CC1	inconclusive: 11.6 µM [cytotoxic, partial curve, poor fit]	
Cc1nc2ccccc2n1C(C)c1nc2ccccc2n1CC(=O)c1ccsc1 (stereo unspecified)	inconclusive: 16.4 µM [cytotoxic, partial curve, poor fit]	
Cc1ccc(-c2cc(-c3n[nH]c(=S)o3)c3ccccc3n2)cc1	inconclusive: 20.6 µM [cytotoxic, partial curve, poor fit]	
Cc1ccc(-c2nnc(CSc3nnc(COc4cccc5ccccc45)n3-c3ccccc3)o2)cc1	active: 2.06 µM	
CCC(CC)c1nnc(NC(=O)COc2ccc3c(c2)OCO3)s1	inconclusive: 6.51 µM [rising, full curve, poor fit]	
COc1ccccc1C(=O)C1CCCN(C(=O)CCn2cnnn2)C1 (stereo unspecified)		inactive: 16.6%
O=S(=O)(Nc1cccc(F)c1)c1ccc(S(=O)(=O)N2CCOCC2)cc1		inactive: -14%
O=C(N/N=C/C=C/c1ccccc1[N+](=O)[O-])c1ccncc1	inconclusive: 13 µM [rising, partial curve, poor fit]	
COc1cccc(OCC(=O)O)c1		inactive: 2.24%
Cc1ccc(NC(=O)CCCSc2ccccc2)cc1S(=O)(=O)N1CCOCC1	inconclusive: 16.4 µM [cytotoxic, partial curve]	
COc1ccc2nc(NC(=O)C(NS(=O)(=O)c3cccc4nsnc34)C(C)C)sc2c1 (stereo unspecified)		inactive: 16.5%
COc1cc2ccccc2cc1C(=O)NC1CCC(C)CC1 (stereo unspecified)	inconclusive: 32.6 µM [cytotoxic, single point]	
COc1ccc(NC(=O)C[C@H]2C(=O)N(CCc3ccccc3)C[C@@H]2CSC)cc1	inconclusive: 16.4 µM [cytotoxic, single point]	
COc1ccc(CN2CC(=O)N(c3ccc(C)cc3C)C2=S)cc1OC	inconclusive: 23.1 µM [cytotoxic, single point]	
CCOc1ccccc1N(C(=O)CNS(=O)(=O)c1ccccc1)C(CC)C(=O)NCc1ccco1 (stereo unspecified)	inconclusive: 6.51 µM [cytotoxic, partial curve]	
Cc1cc(Br)cc(Br)c1OCC(=O)NNC(=O)CCC(=O)NCc1ccccc1		inactive: 55.2%
O=C(CSc1ccccc1)NCc1cccnc1	inconclusive: 20.6 µM [rising, partial curve, poor fit]	
Cc1sc2ncn(CC(=O)N3CCN(c4cccc(Cl)c4)CC3)c(=O)c2c1S(=O)(=O)N1CCN(c2ncccn2)CC1	inconclusive: 20.6 µM [cytotoxic, partial curve, poor fit]	
COc1ccc(C(C(=O)NCc2ccccc2)N(Cc2ccco2)C(=O)c2snc(C(N)=O)c2N)cc1 (stereo unspecified)	inconclusive: 11.6 µM [cytotoxic, partial curve, poor fit]	
Cn1c(=O)[nH]c(=O)c2c1nc(N1CCC(Cc3ccccc3)CC1)n2Cc1ccccc1	inconclusive: 32.6 µM [cytotoxic, single point]	
